Data taken from the supplement of paper PMC12067093, “Discovery and optimisation of a covalent ligand for TRIM25 and its application to targeted protein ubiquitination” (Chemical Science, 2025).
Some of the results follow.

Compound: Cc1cc(ccc1-c1ccccc1)C(=O)N1CCCN(CC1)C(=O)CCl [compound 10]
Assay: probe-labelled cysteine peptide fold change vs DMSO (competition) (log2 fold change); higher = less target engagement (more negative = stronger competition)
Settings: THP-1, incubation time: 4 h
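Also: competitive profiling in live THP-1 cells: cysteine peptides tagged with an iodoacetamide desthiobiotin (IA-DTB) probe, intensity after compound treatment relative to DMSO-treated cells.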

RAN_P62826_120_VCENIPIVLCGNKVDIK (UniProt P62826)
probe-labelled cysteine peptide fold change (10 µM): -0.278 | probe-labelled cysteine peptide fold change (50 µM): -0.646

RANBP6_O60518_741_VAAAESMPFLLECAR (UniProt O60518)
probe-labelled cysteine peptide fold change (10 µM): -0.00411 | probe-labelled cysteine peptide fold change (50 µM): 0.196

RANGAP1_P46060_152_LNNCGMGIGGGK (UniProt P46060)
probe-labelled cysteine peptide fold change (10 µM): -0.173 | probe-labelled cysteine peptide fold change (50 µM): -0.158

RBCK1_Q9BYM8_411_AIHEQMNCK (UniProt Q9BYM8)
probe-labelled cysteine peptide fold change (10 µM): -0.0774 | probe-labelled cysteine peptide fold change (50 µM): -0.255

RBMS1_P29558_194_CEAVIGHFNGK (UniProt P29558)
probe-labelled cysteine peptide fold change (10 µM): 0.153 | probe-labelled cysteine peptide fold change (50 µM): 0.141

RCC1_P18754_81_KKPALVSIPEDVVQAEAGGMHTVCLSK (UniProt P18754)
probe-labelled cysteine peptide fold change (10 µM): 0.222 | probe-labelled cysteine peptide fold change (50 µM): 0.00225

RBM22_Q9NW64_269_QQCAFIQFATR (UniProt Q9NW64)
probe-labelled cysteine peptide fold change (10 µM): 0.195 | probe-labelled cysteine peptide fold change (50 µM): 0.342

RCC1_P18754_93_SGQVYSFGCNDEGALGR (UniProt P18754)
probe-labelled cysteine peptide fold change (10 µM): 0.305 | probe-labelled cysteine peptide fold change (50 µM): 0.193

RANGAP1_P46060_82_CHWSDMFTGR (UniProt P46060)
probe-labelled cysteine peptide fold change (10 µM): -0.0358 | probe-labelled cysteine peptide fold change (50 µM): -0.142

RANBP10_Q6VN20_501_RQLCGGNQAATER (UniProt Q6VN20)
probe-labelled cysteine peptide fold change (10 µM): -0.0263 | probe-labelled cysteine peptide fold change (50 µM): -0.358

RBCK1_Q9BYM8_323_NSQEAEVSCPFIDNTYSCSGK (UniProt Q9BYM8)
probe-labelled cysteine peptide fold change (10 µM): -0.0376 | probe-labelled cysteine peptide fold change (50 µM): -0.39

RANBP9_Q96S59_707_QPPLALAMGQATQCLGLMAR (UniProt Q96S59)
probe-labelled cysteine peptide fold change (10 µM): 0.193 | probe-labelled cysteine peptide fold change (50 µM): 0.216

RBM17_Q96I25_339_CVIFEIPGAPDDEAVR (UniProt Q96I25)
probe-labelled cysteine peptide fold change (10 µM): 0.133 | probe-labelled cysteine peptide fold change (50 µM): 0.0548

RB1_P06400_283_EHECNIDEVK (UniProt P06400)
probe-labelled cysteine peptide fold change (10 µM): 0.125 | probe-labelled cysteine peptide fold change (50 µM): -0.0092

RBKS_Q9H477_73_LGAMTSMVCK (UniProt Q9H477)
probe-labelled cysteine peptide fold change (10 µM): -0.0496 | probe-labelled cysteine peptide fold change (50 µM): -0.178

RBM6_P78332_1057_GGCVQQATGWR (UniProt P78332)
probe-labelled cysteine peptide fold change (10 µM): -0.14 | probe-labelled cysteine peptide fold change (50 µM): -0.495

RBM27_Q9P2N5_776_LGHAGGNQSDASHLLNQSGGAGEDCQIFSTPGHPK (UniProt Q9P2N5)
probe-labelled cysteine peptide fold change (10 µM): 0.0152 | probe-labelled cysteine peptide fold change (50 µM): -0.172

RECQL4_O94761_389_KKGECFGGGGATVTTK (UniProt O94761)
probe-labelled cysteine peptide fold change (10 µM): 0.105 | probe-labelled cysteine peptide fold change (50 µM): 0.274

RAI1_Q7Z5J4_899_APLICTK (UniProt Q7Z5J4)
probe-labelled cysteine peptide fold change (10 µM): -0.3 | probe-labelled cysteine peptide fold change (50 µM): -0.16

RCHY1_Q96PM5_172_TCYEEMLK (UniProt Q96PM5)
probe-labelled cysteine peptide fold change (10 µM): 0.00802 | probe-labelled cysteine peptide fold change (50 µM): -0.16

RBPJ_Q06330_68+72_FFCPPPCVYLMGSGWK (UniProt Q06330)
probe-labelled cysteine peptide fold change (10 µM): 0.0391 | probe-labelled cysteine peptide fold change (50 µM): 0.0548

RANBP2_P49792_1749_CIACQCPSK (UniProt P49792)
probe-labelled cysteine peptide fold change (10 µM): 0.0505 | probe-labelled cysteine peptide fold change (50 µM): 0.0953

RANBP2_P49792_2982_VCANHVITK (UniProt P49792)
probe-labelled cysteine peptide fold change (10 µM): 0.0357 | probe-labelled cysteine peptide fold change (50 µM): 0.111

RAPGEF6_Q8TEU7_522_LLNIACAAK (UniProt Q8TEU7)
probe-labelled cysteine peptide fold change (10 µM): -0.0173 | probe-labelled cysteine peptide fold change (50 µM): 0.0201

RAI1_Q7Z5J4_40_QPSQAGLSCDR (UniProt Q7Z5J4)
probe-labelled cysteine peptide fold change (10 µM): -0.205 | probe-labelled cysteine peptide fold change (50 µM): -0.513

RBM25_P49756_83_AKENDENCGPTTTVFVGNISEK (UniProt P49756)
probe-labelled cysteine peptide fold change (10 µM): -0.0629 | probe-labelled cysteine peptide fold change (50 µM): -0.55

RAP1GAP2_Q684P5_185_CEEAEGIEYLR (UniProt Q684P5)
probe-labelled cysteine peptide fold change (10 µM): -0.00551 | probe-labelled cysteine peptide fold change (50 µM): 0.439

RCHY1_Q96PM5_164_VVAHVLPCGHLLHR (UniProt Q96PM5)
probe-labelled cysteine peptide fold change (10 µM): -0.206 | probe-labelled cysteine peptide fold change (50 µM): -0.115

RBFA_Q8N0V3_338_TEDGHSCGASR (UniProt Q8N0V3)
probe-labelled cysteine peptide fold change (10 µM): -0.17 | probe-labelled cysteine peptide fold change (50 µM): -0.0284

RAPGEF6_Q8TEU7_1413_HTHLDDPIAEVEPTDSEPYSCSK (UniProt Q8TEU7)
probe-labelled cysteine peptide fold change (10 µM): -0.346 | probe-labelled cysteine peptide fold change (50 µM): -0.271

RAP1GDS1_P52306_350_NDANCIHMVDNGIVEK (UniProt P52306)
probe-labelled cysteine peptide fold change (10 µM): -0.0927 | probe-labelled cysteine peptide fold change (50 µM): 0.0269

RAI1_Q7Z5J4_1729_VRPEGTCEEASLPLER (UniProt Q7Z5J4)
probe-labelled cysteine peptide fold change (10 µM): -0.257 | probe-labelled cysteine peptide fold change (50 µM): -0.157

RASGRP4_Q8TDF6_502_LSGNFPFACHGLHPPPR (UniProt Q8TDF6)
probe-labelled cysteine peptide fold change (10 µM): -0.315 | probe-labelled cysteine peptide fold change (50 µM): -0.369

RANBP2_P49792_3032_EVADCFK (UniProt P49792)
probe-labelled cysteine peptide fold change (10 µM): 0.00151 | probe-labelled cysteine peptide fold change (50 µM): 0.0357

RCC1L_Q96I51_114_ISSAACGYGFTLLSSK (UniProt Q96I51)
probe-labelled cysteine peptide fold change (10 µM): -0.129 | probe-labelled cysteine peptide fold change (50 µM): -0.0746

RANBP2_P49792_1485_EGQWDCSACLVQNEGSSTK (UniProt P49792)
probe-labelled cysteine peptide fold change (10 µM): 0.0715 | probe-labelled cysteine peptide fold change (50 µM): 0.0194

RALGAPA2_Q2PPJ7_418_GYVNFVNEVFHQAFLLPSCEIAVTR (UniProt Q2PPJ7)
probe-labelled cysteine peptide fold change (10 µM): -0.0914 | probe-labelled cysteine peptide fold change (50 µM): -0.0596

RCAN3_Q9UKA8_173_QSEDAMPVINYDLLCAVSK (UniProt Q9UKA8)
probe-labelled cysteine peptide fold change (10 µM): 0.00859 | probe-labelled cysteine peptide fold change (50 µM): 0.15

RBBP4_Q09028_138_YMPQNPCIIATK (UniProt Q09028)
probe-labelled cysteine peptide fold change (10 µM): 0.0321 | probe-labelled cysteine peptide fold change (50 µM): -0.0569
